Read-outs that look alike come from different tables or passages of the source. Some entries share one result that the patent states for a list of compounds.
Target: B-Raf (V599E or Wild Type) (Homo sapiens, UniProt P15056)
Experiment: B-Raf Flash Plate assay
Format: biochemical
Settings: Peptide 118, 0.5 μM ATP, 60 minutes
[1] = read-out: IC50, inhibition of the enzyme in B-Raf Flash Plate assay
[2] = read-out: IC50 in B-Raf Flash Plate assay

The chains behind the UniProt entries cited, without tags or fusion partners.
UniProt P15056, whole entry, stated change not applied: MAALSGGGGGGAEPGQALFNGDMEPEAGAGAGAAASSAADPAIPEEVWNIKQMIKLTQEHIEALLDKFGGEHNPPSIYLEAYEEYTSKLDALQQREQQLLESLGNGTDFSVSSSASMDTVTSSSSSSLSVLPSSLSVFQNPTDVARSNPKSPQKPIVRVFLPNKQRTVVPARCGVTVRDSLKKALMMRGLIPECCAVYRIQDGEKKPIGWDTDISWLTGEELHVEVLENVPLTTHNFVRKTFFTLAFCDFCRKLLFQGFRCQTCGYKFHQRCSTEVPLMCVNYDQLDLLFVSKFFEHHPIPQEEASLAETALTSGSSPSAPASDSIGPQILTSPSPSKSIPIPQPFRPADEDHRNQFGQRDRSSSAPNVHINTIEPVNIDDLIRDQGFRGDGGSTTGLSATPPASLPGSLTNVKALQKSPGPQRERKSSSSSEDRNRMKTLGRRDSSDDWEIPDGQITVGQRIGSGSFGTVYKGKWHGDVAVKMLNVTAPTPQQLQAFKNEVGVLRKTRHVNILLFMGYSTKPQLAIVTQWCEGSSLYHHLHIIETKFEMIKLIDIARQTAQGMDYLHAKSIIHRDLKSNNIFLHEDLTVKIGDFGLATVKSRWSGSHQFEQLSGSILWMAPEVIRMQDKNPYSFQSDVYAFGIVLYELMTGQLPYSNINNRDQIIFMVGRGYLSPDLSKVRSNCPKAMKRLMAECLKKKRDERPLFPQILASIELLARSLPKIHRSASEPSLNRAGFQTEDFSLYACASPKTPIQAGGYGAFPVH

NCc1cc(NC(=O)C2CCc3ccc(Oc4ccnc(-c5nc(CO)c[nH]5)c4)cc3C2)cc(C(F)(F)F)c1 (stereo not drawn) [Compound I-403, N-[3-(aminomethyl)-5-(trifluoromethyl)phenyl]-7-({2-[4-(hydroxymethyl)-1H-imidazol-2-yl]pyridin-4-yl}oxy)-1,2,3,4-tetrahydronaphthalene-2-carboxamide]
IC50 [1]: ≤ 1000 nM | IC50 [2]: < 50 nM

CN1CCN(Cc2cnc(-c3cc(Oc4ccc5ccc(C(=O)Nc6cccc(C(C)(C)C)c6)cc5c4)ccn3)[nH]2)CC1 [Compound I-216, N-(3-tert-butylphenyl)-7-[(2-{5-[(4-methylpiperazin-1-yl)methyl]-1H-imidazol-2-yl}pyridin-4-yl)oxy]-2-naphthamide]
IC50 [1]: ≤ 1000 nM | IC50 [2]: < 50 nM

CC(C)(C)c1cccc(NC(=O)C2CCc3ccc(Oc4ccnc(NC(=O)OC[C@H](O)CO)c4)cc3C2)c1 (stereo partly drawn) [Compound I-277, (2R)-2,3-dihydroxypropyl {4-[(7-{[(3-tert-butylphenyl)amino]carbonyl}-5,6,7,8-tetrahydronaphthalen-2-yl)oxy]pyridin-2-yl}carbamate]
IC50 [1]: ≤ 1000 nM | IC50 [2]: < 50 nM

CC(C)(C)c1cccc(NC(=O)c2ccc3ccc(Oc4ccnc(N)c4)cc3c2)c1 [Compound I-140, 7-[(2-aminopyridin-4-yl)oxy]-N-(3-tert-butylphenyl)-2-naphthamide]
IC50 [1]: ≤ 1000 nM | IC50 [2]: < 50 nM

CC(=O)Nc1cc(Oc2ccc3c(c2)CC(C(=O)Nc2cc(CN4CCN(C)CC4)cc(C(F)(F)F)c2)CC3)ccn1 (stereo not drawn) [Compound I-234, 7-{[2-(acetylamino)pyridin-4-yl]oxy}-N-[3-[(4-methylpiperazin-1-yl)methyl]-5-(trifluoromethyl)phenyl]-1,2,3,4-tetrahydronaphthalene-2-carboxamide]
IC50 [1]: ≤ 1000 nM | IC50 [2]: < 50 nM

CC(C)NCC(=O)NCc1cc(Oc2ccc3c(c2)CC(C(=O)Nc2cccc(C(C)(C)C)c2)CC3)ccn1 (stereo not drawn) [Compound I-202, N-(3-tert-butylphenyl)-7-{[2-({[(isopropylamino)acetyl]amino}methyl)pyridin-4-yl]oxy}-1,2,3,4-tetrahydronaphthalene-2-carboxamide]
IC50 [1]: ≤ 1000 nM | IC50 [2]: < 50 nM

CC(C)(C)c1cccc(NC(=O)c2ccc3ccc(Oc4ccnc(-c5nc(C(=O)O)c[nH]5)c4)cc3c2)c1 [Compound I-239, 2-{4-[(7-{[(3-tert-butylphenyl)amino]carbonyl}-2-naphthyl)oxy]pyridin-2-yl}-1H-imidazole-4-carboxylic acid]
IC50 [1]: ≤ 1000 nM | IC50 [2]: < 50 nM

O=C(Nc1ccc(Cl)c(C(F)(F)F)c1)[C@H]1CCc2ccc(Oc3ccnc(C4=NCCN4)c3)cc2C1 (single isomer, unassigned) [Compound I-17]
IC50 [1]: ≤ 1000 nM | IC50 [2]: < 50 nM

CC(C)(C)c1cc(CN2CCCC2)cc(NC(=O)C2CCc3ccc(Oc4ccnc(NC(=O)C5CC5)c4)cc3C2)c1 (stereo not drawn) [Compound I-223, N-[3-tert-butyl-5-(pyrrolidin-1-ylmethyl)phenyl]-7-({2-[(cyclopropylcarbonyl)amino]pyridin-4-yl}oxy)-1,2,3,4-tetrahydronaphthalene-2-carboxamide]
IC50 [1]: ≤ 1000 nM | IC50 [2]: < 50 nM

CC(=O)Nc1cc(Oc2ccc3c(c2)C[C@H](C(=O)Nc2cc(CN4CCCC4)cc(C(F)(F)F)c2)CC3)ccn1 [Compound I-185, (2R)-7-{[2-(acetylamino)pyridin-4-yl]oxy}-N-[3-(pyrrolidin-1-ylmethyl)-5-(trifluoromethyl)phenyl]-1,2,3,4-tetrahydronaphthalene-2-carboxamide]
IC50 [1]: ≤ 1000 nM | IC50 [2]: < 50 nM

CNc1cc(Oc2ccc3c(c2)CC(C(=O)Nc2cccc(C(C)(C)C)c2)CC3)ccn1 (stereo not drawn) [Compound I-342, N-(3-tert-butylphenyl)-7-{[2-(methylamino)pyridin-4-yl]oxy}-1,2,3,4-tetrahydronaphthalene-2-carboxamide]
IC50 [1]: ≤ 1000 nM | IC50 [2]: < 50 nM

CC(F)(F)c1cccc(NC(=O)C2CCc3ccc(Oc4ccnc(NC(=O)C5CC5)c4)cc3C2)c1 (stereo not drawn) [Compound I-214, 7-({2-[(cyclopropylcarbonyl)amino]pyridin-4-yl}oxy)-N-[3-(1,1-difluoroethyl)phenyl]-1,2,3,4-tetrahydronaphthalene-2-carboxamide]
IC50 [1]: ≤ 1000 nM | IC50 [2]: < 50 nM

CC(=O)Nc1cc(Oc2ccc3ccc(C(=O)Nc4cc(OCCN5CCCC5)cc(C(F)(F)F)c4)cc3c2)ccn1 [Compound I-433, 7-{[2-(acetylamino)pyridin-4-yl]oxy}-N-[3-(2-pyrrolidin-1-ylethoxy)-5-(trifluoromethyl)phenyl]-2-naphthamide]
IC50 [1]: ≤ 1000 nM | IC50 [2]: < 50 nM

CNC(=O)c1cc(Oc2ccc3c(c2)CC(C(=O)Nc2cc(CCN)cc(C(F)(F)F)c2)CC3)ccn1 (stereo not drawn) [Compound I-47, 4-{[7-({[3-(2-Aminoethyl)-5-(trifluoromethyl)phenyl]-amino}carbonyl)-5,6,7,8-tetrahydronaphthalen-2-yl]oxy}-N-methylpyridine-2-carboxamide]
IC50 [1]: ≤ 1000 nM | IC50 [2]: < 50 nM

CC(C)(C)c1cccc(NC(=O)c2ccc3ccc(Oc4ccnc(C(=N)N)c4)cc3c2)c1 [Compound I-63, 7-({2-[amino(imino)methyl]pyridin-4-yl}oxy)-N-(3-tert-butylphenyl)-2-naphthamide]
IC50 [1]: ≤ 1000 nM | IC50 [2]: < 50 nM

NCc1cc(NC(=O)C2CCc3ccc(Oc4ccnc(-n5cncn5)c4)cc3C2)cc(C(F)(F)F)c1 (stereo not drawn) [Compound I-330, N-[3-(aminomethyl)-5-(trifluoromethyl)phenyl]-7-{[2-(1H-1,2,4-triazol-1-yl)pyridin-4-yl]oxy}-1,2,3,4-tetrahydronaphthalene-2-carboxamide]
IC50 [1]: ≤ 1000 nM

CN1CCN(Cc2cc(NC(=O)C3=Cc4cc(Oc5ccnc(NC(=O)C6CC6)c5)ccc4OC3)cc(C(F)(F)F)c2)CC1 [Compound I-279, 6-({2-[(cyclopropylcarbonyl)amino]pyridin-4-yl}oxy)-N-[3-[(4-methylpiperazin-1-yl)methyl]-5-(trifluoromethyl)phenyl]-2H-chromene-3-carboxamide]
IC50 [1]: ≤ 1000 nM | IC50 [2]: < 50 nM

CC(=O)Nc1cc(Oc2ccc3c(c2)C=C(C(=O)Nc2cc(CN4CCCC4)cc(C(F)(F)F)c2)CO3)ccn1 [Compound I-376, 6-{[2-(acetylamino)pyridin-4-yl]oxy}-N-[3-(pyrrolidin-1-ylmethyl)-5-(trifluoromethyl)phenyl]-2H-chromene-3-carboxamide]
IC50 [1]: ≤ 1000 nM | IC50 [2]: < 50 nM

CC(C(=O)Nc1cc(Oc2ccc3ccc(C(=O)Nc4cccc(C(C)(C)C)c4)cc3c2)ccn1)N1CCOCC1 (stereo not drawn) [Compound I-289, N-(3-tert-butylphenyl)-7-({2-[(2-morpholin-4-ylpropanoyl)amino]pyridin-4-yl}oxy)-2-naphthamide]
IC50 [1]: ≤ 1000 nM | IC50 [2]: < 50 nM

CNC(=O)c1cc(Oc2ccc3c(c2)CC(C(=O)Nc2ccc4c(c2)CNCC4)CC3)ccn1 (stereo not drawn) [Compound I-204, N-methyl-4-({7-[(1,2,3,4-tetrahydroisoquinolin-7-ylamino)carbonyl]-5,6,7,8-tetrahydronaphthalen-2-yl}oxy)pyridine-2-carboxamide]
IC50 [1]: ≤ 1000 nM | IC50 [2]: < 50 nM

CC(C)(C)c1cccc(NC(=O)C2CCc3ccc(Oc4ccnc(C5=NCCN5)c4)cc3C2)c1 (stereo not drawn) [Compound I-44, N-(3-tert-butylphenyl)-7-{[2-(4,5-dihydro-1H-imidazol-2-yl)pyridin-4-yl]oxy}-1,2,3,4-tetrahydronaphthalene-2-carboxamide]
IC50 [1]: ≤ 1000 nM | IC50 [2]: < 50 nM

CC(C)(C)c1cccc(NC(=O)c2ccc3ccc(Oc4ccnc(C#N)c4)cc3c2)c1 [Compound I-340, N-(3-tert-butylphenyl)-7-[(2-cyanopyridin-4-yl)oxy]-2-naphthamide]
IC50 [1]: ≤ 1000 nM | IC50 [2]: < 50 nM

Cn1nnnc1-c1cc(Oc2ccc3c(c2)CC(C(=O)Nc2cccc(C(C)(C)C)c2)CC3)ccn1 (stereo not drawn) [Compound I-321, N-(3-tert-butylphenyl)-7-{[2-(1-methyl-1H-tetrazol-5-yl)pyridin-4-yl]oxy}-1,2,3,4-tetrahydronaphthalene-2-carboxamide]
IC50 [1]: ≤ 1000 nM | IC50 [2]: < 50 nM

O=C(Nc1cc(OCCN2CCCC2)cc(C(F)(F)F)c1)C1CCc2ccc(Oc3ccnc(-c4nn[nH]n4)c3)cc2C1 (stereo not drawn) [Compound I-355, N-[3-(2-pyrrolidin-1-ylethoxy)-5-(trifluoromethyl)phenyl]-7-{[2-(2H-tetrazol-5-yl)pyridin-4-yl]oxy}-1,2,3,4-tetrahydronaphthalene-2-carboxamide]
IC50 [1]: ≤ 1000 nM | IC50 [2]: < 50 nM

CCNC(=O)Nc1cc(Oc2ccc3c(c2)CC(C(=O)Nc2cccc(C(C)(C)C)c2)CC3)ccn1 (stereo not drawn) [Compound I-370, N-(3-tert-butylphenyl)-7-[(2-{[(ethylamino)carbonyl]amino}-pyridin-4-yl)oxy]-1,2,3,4-tetrahydronaphthalene-2-carboxamide]
IC50 [1]: ≤ 1000 nM | IC50 [2]: < 50 nM

CN1Cc2ccc(Oc3ccnc(C4=NCCN4)c3)cc2CC1C(=O)Nc1ccc(Cl)c(C(F)(F)F)c1 (stereo not drawn) [Compound I-11, N-[4-Chloro-3-(trifluoromethyl)phenyl]-6-{[2-(4,5-dihydro-1H-imidazol-2-yl)pyridin-4-yl]oxy}-2-methyl-1,2,3,4-tetrahydroisoquinoline-3-carboxamide]
IC50 [1]: ≤ 1000 nM

O=C(Nc1cc(C2CCCN2)cc(C(F)(F)F)c1)C1CCc2ccc(Oc3ccnc(NC(=O)C4CC4)c3)cc2C1 (stereo not drawn) [Compound I-256, 7-({2-[(cyclopropylcarbonyl)amino]pyridin-4-yl}oxy)-N-[3-pyrrolidin-2-yl-5-(trifluoromethyl)phenyl]-1,2,3,4-tetrahydronaphthalene-2-carboxamide]
IC50 [1]: ≤ 1000 nM | IC50 [2]: < 50 nM

CCC(=O)Nc1cc(Oc2ccc3c(c2)CC(C(=O)Nc2cc(CN)cc(C(F)(F)F)c2)CC3)ccn1 (stereo not drawn) [Compound I-238, N-[3-(aminomethyl)-5-(trifluoromethyl)phenyl]-7-{[2-(propionylamino)pyridin-4-yl]oxy}-1,2,3,4-tetrahydronaphthalene-2-carboxamide]
IC50 [1]: ≤ 1000 nM | IC50 [2]: < 50 nM

From US8110687B2, “Bicyclic compounds with kinase inhibitory activity” (Millennium Pharmaceuticals, Inc., priority 2005, dated 2012)
